According to patent publication US20060211724A1, “Hiv integrase inhibitors” (priority 2003, published 2006):
Some results were stated once for a whole list of compounds, not compound by compound. For at least one compound, name, drawing or mass did not settle the structure.

The molecules below were run on HIV replication cycle in MT4-LTR-EGFP cells (assay: Time of addition assay). Conditions: high MOI; added from 30 min post infection; p24 and fluorescence 24 hours after infection.
Type: cell-based
`O=C1c2c(c(O)c3nccnc3c2O)C(=O)N1Cc1ccc2c(c1)OCO2` [Compound 1, 7-Benzo[1,3]dioxol-5-ylmethyl-5,9-dihydroxy-pyrrolo[3,4-g]quinoxaline-6,8-dione] was tested, and the “score in time-of-addition experiment (step in HIV replication cycle in which compound is active)” value (“score in time-of-addition experiment” below) was “integrase”. With `O=C1c2c(c(O)c3nccnc3c2O)C(=O)N1Cc1ccc(F)cc1` [Compound 2, 7-(4-Fluoro-benzyl)-5,9-dihydroxy-pyrrolo[3,4-g]quinoxaline-6,8-dione] the “score in time-of-addition experiment” value was “integrase”. With `Cc1ccc(CN2C(=O)c3c(c(O)c4nccnc4c3O)C2=O)cc1` [Compound 3, 5,9-Dihydroxy-7-(4-methyl-benzyl)-pyrrolo[3,4-g]quinoxaline-6,8-dione] the “score in time-of-addition experiment” value was “integrase”. `O=C1c2c(c(O)c3nccnc3c2O)C(=O)N1Cc1ccc(Br)cc1` [Compound 4, 7-(4-Bromo-benzyl)-5,9-dihydroxy-pyrrolo[3,4-g]quinoxaline-6,8-dione] was tested, and the “score in time-of-addition experiment” value was “integrase”. With `O=C1c2c(c(O)c3ncccc3c2O)C(=O)N1Cc1ccc2c(c1)OCO2` [Compound 5, 7-Benzo[1,3]dioxol-5-ylmethyl-5,9-dihydroxy-pyrrolo[3,4-g]quinoline-6,8-dione] the “score in time-of-addition experiment” value was “integrase”. `CCOC(=O)C(=O)Oc1c2c(c(O)c3nccnc13)CN(Cc1ccc3c(c1)OCO3)C2` [Compound 6, Oxalic acid 7-benzo[1,3]dioxol-5-ylmethyl-9-hydroxy-6,8-dihydro-6H-pyrrolo[3,4-g]quinoxalin-5-yl ester ethyl ester] was tested, and the “score in time-of-addition experiment” value was “integrase”. `O=C1c2c(c(O)c3nccnc3c2O)C(=O)N1Cc1ccc(Oc2ccccc2)cc1` [Compound 7, 5,9-Dihydroxy-7-(4-phenoxy-benzyl)-pyrrolo[3,4-g]quinoxaline-6,8-dione] was tested, and the “score in time-of-addition experiment” value was “integrase”. `Cc1ccc2c(O)c3c(c(O)c2n1)C(=O)N(C(C)c1ccccc1)C3=O` (stereo not drawn) [Compound 8, 5,9-Dihydroxy-2-methyl-7-(1-phenyl-ethyl)-pyrrolo[3,4-g]quinoline-6,8-dione] was tested, and the “score in time-of-addition experiment” value was “integrase”. In the case of `O=C1c2c(c(O)c3ccccc3c2O)C(=O)N1c1ccc2c(c1)OCO2` [Compound 9, 2-Benzo[1,3]dioxol-5-yl-4,9-dihydroxy-benzo[f]isoindole-1,3-dione], the “score in time-of-addition experiment” value was “integrase”. In the case of `O=C1c2c(c(O)c3nccnc3c2O)C(=O)N1c1ccc2c(c1)OCO2` [Compound 10, 7-Benzo[1,3]dioxol-5-yl-5,9-dihydroxy-pyrrolo[3,4-g]quinoxaline-6,8-dione], the “score in time-of-addition experiment” value was “integrase”. For `O=C1c2c(c(O)c3ccccc3c2O)C(=O)N1Cc1ccc(F)cc1` [Compound 11, 2-(4-Fluoro-benzyl)-4,9-dihydroxy-benzo[f]isoindole-1,3-dione], the “score in time-of-addition experiment” value was “integrase”. With `O=C1c2c(c(O)c3ccccc3c2O)C(=O)N1CCc1ccccc1` [Compound 12, 4,9-Dihydroxy-2-phenethyl-benzo[f]isoindole-1,3-dione] the “score in time-of-addition experiment” value was “integrase”. `O=C1c2c(c(O)c3c(F)cccc3c2O)C(=O)N1Cc1ccc(F)cc1` [Compound 13, 5-Fluoro-2-(4-fluoro-benzyl)-4,9-dihydroxy-benzo[f]isoindole-1,3-dione] was tested, and the “score in time-of-addition experiment” value was “integrase”. `O=C1c2c(c(O)c3nccnc3c2O)C(=O)N1CCc1ccccc1` [Compound 14, 5,9-Dihydroxy-7-phenethyl-pyrrolo[3,4-g]quinoxaline-6,8-dione] was tested, and the “score in time-of-addition experiment” value was “integrase”. With `C[C@H](c1ccccc1)N1C(=O)c2c(c(O)c3nccnc3c2O)C1=O` [Compound 15, 5,9-Dihydroxy-7-(1-(R)-phenyl-ethyl)-pyrrolo[3,4-g]quinoxaline-6,8-dione] the “score in time-of-addition experiment” value was “integrase”. With `O=C1c2c(c(O)c3nccnc3c2O)C(=O)N1Cc1cccc(F)c1` [Compound 16, 7-(3-Fluoro-benzyl)-5,9-dihydroxy-pyrrolo[3,4-g]quinoxaline-6,8-dione] the “score in time-of-addition experiment” value was “integrase”. `COc1ccc(CN2C(=O)c3c(c(O)c4nccnc4c3O)C2=O)cc1` [Compound 17, 5,9-Dihydroxy-7-(4-methoxy-benzyl)-pyrrolo[3,4-g]quinoxaline-6,8-dione] was tested, and the “score in time-of-addition experiment” value was “integrase”. In the case of `O=C1c2c(c(O)c3nccnc3c2O)C(=O)N1Cc1cccc(CN2C(=O)c3c(c(O)c4nccnc4c3O)C2=O)c1` [Compound 18, 7-[3-(5,9-Dihydroxy-6,8-dioxo-6,8-dihydro-pyrrolo[3,4-g]quinoxalin-7-ylmethyl)-benzyl]-5,9-dihydroxy-pyrrolo[3,4-g]quinoxaline-6,8-dione], the “score in time-of-addition experiment” value was “integrase”. In the case of `Cc1ccc2c(O)c3c(c(O)c2n1)C(=O)N(CCc1ccccc1)C3=O` [Compound 19, 5,9-Dihydroxy-2-methyl-7-phenethyl-pyrrolo[3,4-g]quinoline-6,8-dione], the “score in time-of-addition experiment” value was “integrase”. `Cc1ccc2c(O)c3c(c(O)c2n1)C(=O)N(Cc1ccc2c(c1)OCO2)C3=O` [Compound 20, 7-Benzo[1,3]dioxol-5-ylmethyl-5,9-dihydroxy-2-methyl-pyrrolo[3,4-g]quinoline-6,8-dione] was tested, and the “score in time-of-addition experiment” value was “integrase”. For `Cc1ccc2c(O)c3c(c(O)c2n1)C(=O)N(Cc1cccc(F)c1)C3=O` [Compound 21, 7-(3-Fluoro-benzyl)-5,9-dihydroxy-2-methyl-pyrrolo[3,4-g]quinoline-6,8-dione], the “score in time-of-addition experiment” value was “integrase”. `Cc1ccc2c(O)c3c(c(O)c2n1)C(=O)N(Cc1ccc(F)cc1)C3=O` [Compound 22, 7-(4-Fluoro-benzyl)-5,9-dihydroxy-2-methyl-pyrrolo[3,4-g]quinoline-6,8-dione] was tested, and the “score in time-of-addition experiment” value was “integrase”. For `COc1ccc(CN2C(=O)c3c(c(O)c4nc(C)ccc4c3O)C2=O)cc1` [Compound 23, 5,9-Dihydroxy-7-(4-methoxy-benzyl)-2-methyl-pyrrolo[3,4-g]quinoline-6,8-dione], the “score in time-of-addition experiment” value was “integrase”. `O=C1c2c(c(O)c3ncccc3c2O)C(=O)N1CCc1ccccc1` [Compound 24, 5,9-Dihydroxy-7-phenethyl-pyrrolo[3,4-g]quinoline-6,8-dione] was tested, and the “score in time-of-addition experiment” value was “integrase”. In the case of `CC(c1ccccc1)N1C(=O)c2c(c(O)c3nccnc3c2O)C1=O` (stereo not drawn) [Compound 25, 5,9-Dihydroxy-7-(1-phenyl-ethyl)-pyrrolo[3,4-g]quinoxaline-6,8-dione], the “score in time-of-addition experiment” value was “integrase”. For `O=C1c2c(c(O)c3nccnc3c2O)C(=O)N1CC1CCCCC1` [Compound 26, 7-Cyclohexylmethyl-5,9-Dihydroxy-pyrrolo[3,4-g]quinoxaline-6,8-dione], the “score in time-of-addition experiment” value was “integrase”. With `O=C1c2c(c(O)c3nccnc3c2O)C(=O)N1Cc1cccc2ccccc12` [Compound 27, 5,9-Dihydroxy-7-naphthalen-1-ylmethyl-pyrrolo[3,4-g]quinoxaline-6,8-dione] the “score in time-of-addition experiment” value was “integrase”.
